Consider one compound from patent US10849879B2, “Localized modulation of tissues and cells to enhance therapeutic effects including renal denervation” (Mercator MedSystems, Inc., priority 2011, dated 2020).

For data set [1], the system named is harvested and cultured rat superior cervical ganglia neurons. As to conditions: pH of 7.2; primary rat superior cervical ganglia neurons in culture; cited from earlier work.
The subject of the next data set is renal sympathetic nerves. As to conditions: pig, pH 9.3.
The test system of data set [2] is Rat SCG: Primary rat superior cervical ganglia cells. As to conditions: pH 9.3.

With `NC(N)=NCCN1CCCCCCC1` [guanethidine, 2-[2-(azocan-1-yl)ethyl]guanidine], in data set [1], the cytotoxicity result is reported as “lack of cytotoxicity”. Besides, in the data set on renal sympathetic nerves, the neurotoxicity in vivo entry is recorded as “significant observable neurotoxicity”. Further, the toxicity entry in data set [2] was “dose-dependent toxicity”. Besides, the “toxicity in response to guanethidine” value with neuronal cell lines is “dose-dependent effects”.
